Experimental data: PubChem BioAssay AID540276 (National Center for Advancing Translational Sciences (NCATS), 2011)
Out of some 300,000 compounds screened, about 5,400 (1.8%) were called active. The inconclusive results got no clear call from the source; some entries with a clear call stand among them for comparison. Calls come from the whole dose curve; tested in HEK293 cells. Potencies of inconclusive entries are doubtful fits and often do not repeat.

assay: qHTS for inhibitors of binding or entry into cells for Marburg Virus; conditions: Marburg virus pseudotyped entry inhibition, cell reporter; series mostly up to 37.8 µM
Potency is the fitted concentration of half-maximal effect.

Q: With `O=C(Cn1ncc(Cl)c(Cl)c1=O)N1CCN(S(=O)(=O)c2ccc3ccccc3c2)CC1` as the compound, how does the Potency read?
A: active: 1.78 µM

Q: With `Cc1ccc2nc(C)cc(C(=O)N3CCCC(CO)(Cc4ccccc4C)C3)c2c1` (configuration not stated) as the compound, how does the Potency read?
A: inconclusive: 25.1 µM [inhibitor, single point]

Q: For `COC(=O)COc1ccc(S(=O)(=O)Nc2ccc(NC(C)=O)cc2)cc1`, which Potency is on record?
A: inconclusive: 6.51 µM [inhibitor, single point]

Q: With `CCn1c(-c2ccc(N(C)C)cc2)nc2ccccc21` as the compound, how does the Potency read?
A: inconclusive: 29.1 µM [inhibitor, single point]

Q: With `O=C(NNC(=S)NCc1ccccc1)c1ccccc1OC(F)F` as the compound, how does the Potency read?
A: inconclusive: 1.12 µM [activator, full curve, poor fit]

Q: For `Cc1csc2nc(COc3ccc(NC(=O)COc4ccccc4)cc3)cc(=O)n12`, which Potency is on record?
A: inconclusive: 35.5 µM [activator, single point]

Q: With `CCOC(=O)c1cc2c(=O)c3cc(C)ccc3oc2nc1C` as the compound, how does the Potency read?
A: inactive

Q: With `O=C(/C=C/c1ccc(S(=O)(=O)N2CCOCC2)cc1)NC(=S)NCCCn1ccnc1` as the compound, how does the Potency read?
A: inconclusive: 35.5 µM [inhibitor, partial curve, poor fit]

Q: Which Potency does the source give for `CN1C(=O)CS/C1=N\NC(=O)COc1cccc2cccnc12` here?
A: inactive

Q: With `O=C(Nc1ccccc1C(=O)N1CCCC1)c1ccc(Cl)c([N+](=O)[O-])c1` as the compound, how does the Potency read?
A: inactive

Q: With `O=C(CN1C(=O)NC2(CCCC2)C1=O)Nc1cc(Cl)ccc1N1CCOCC1` as the compound, how does the Potency read?
A: inconclusive: 7.08 µM [activator, partial curve, poor fit]

Q: Which Potency does the source give for `COc1ccccc1Cn1c(=O)c2ccccc2n2c(SCC(=O)N3CCCCC3)nnc12` here?
A: inconclusive: 4.47 µM [activator, single point]

Q: For `COC(=O)CSc1cc(C(F)(F)F)nc(-c2ccccn2)n1`, which Potency is on record?
A: inconclusive: 14.6 µM [inhibitor, single point]

Q: With `Cc1ccc(-c2ccc(=O)n(CCC(=O)N3CCN(Cc4ccccc4)CC3)n2)cc1` as the compound, how does the Potency read?
A: inconclusive: 6.31 µM [inhibitor, single point]

Q: For `COc1cc(OC)c(C2=NOC(C(=O)N3CCCc4ccccc43)C2)cc1Cl` (configuration not stated), which Potency is on record?
A: inconclusive: 29.1 µM [inhibitor, single point]

Q: For `Cc1cc(C(=O)NC2CC(C)(C)Cc3c2cnn3-c2ccccc2)n(C)n1` (configuration not stated), which Potency is on record?
A: inconclusive: 20 µM [inhibitor, partial curve, poor fit]

Q: With `Cc1ccsc1/C=C1\CCc2ccccc2C1=O` as the compound, how does the Potency read?
A: inconclusive: 0.461 µM [inhibitor, full curve, poor fit]

Q: For `COc1ccc(/C=N\NC(=O)c2ccccc2OC)cc1COc1ccccc1C`, which Potency is on record?
A: inconclusive: 7.94 µM [inhibitor, partial curve, poor fit]

Q: Which Potency does the source give for `C(=C\c1nc(-c2ccccc2)no1)/c1ccccc1` here?
A: inconclusive: 22.4 µM [inhibitor, single point]

Q: Which Potency does the source give for `COC(=O)[C@]12C[C@@H]3CCN(C(=O)N[C@@H]1c1ccccc1)[C@@]32C` here?
A: inactive

Q: For `CCN(C(=O)CCC(=O)N(CC)c1ccccc1)c1ccccc1`, which Potency is on record?
A: inconclusive: 6.31 µM [inhibitor, single point]

Q: Which Potency does the source give for `COc1ccc(C2=C(N3CCN(c4cccc(C)c4)C(C)C3)c3ccccc3C2=O)cc1` (configuration not stated) here?
A: inconclusive: 5.62 µM [activator, single point]

Q: With `CCOC(=O)CNC(=S)N(Cc1ccco1)Cc1ccccc1Cl` as the compound, how does the Potency read?
A: inactive

Q: For `CC(=O)C1=C(C)OC(N)=C(C#N)C1c1ccncc1` (configuration not stated), which Potency is on record?
A: inactive

Q: Which Potency does the source give for `O=C(Nc1cccn(Cc2c(Cl)cccc2Cl)c1=O)c1c(Cl)cccc1Cl` here?
A: inconclusive: 10.3 µM [inhibitor, partial curve, poor fit]

Q: Which Potency does the source give for `O=C(c1ccc(Br)cc1)C(CN1CCOCC1)c1ccccc1` (configuration not stated) here?
A: inconclusive: 10 µM [inhibitor, partial curve, poor fit]

Q: For `Cc1ccc(S(=O)(=O)Oc2ccccc2/C=N/NC(N)=S)cc1`, which Potency is on record?
A: inconclusive: 1.16 µM [inhibitor, full curve, poor fit]

Q: For `CSc1nc(Oc2cccc(C(F)(F)F)c2)cc(C(F)(F)F)n1`, which Potency is on record?
A: inconclusive: 0.112 µM [activator, full curve, poor fit]

Q: Which Potency does the source give for `O=C(CN1CCN(S(=O)(=O)c2ccc(F)c(Cl)c2)CC1)N1CCc2ccccc2C1` here?
A: inactive

Q: With `O=C(NNC(=O)c1cc([N+](=O)[O-])ccc1Cl)c1cccs1` as the compound, how does the Potency read?
A: inactive

Q: With `COc1ccccc1CNC(=O)c1ccc(-c2ccccc2Cl)o1` as the compound, how does the Potency read?
A: inactive

Q: For `O=C(Nc1ccc(Cl)cc1)N1CCCN(c2ccc(C(F)(F)F)cc2[N+](=O)[O-])CC1`, which Potency is on record?
A: inconclusive: 20 µM [inhibitor, single point]

Q: With `COc1cccc(C=NN2CCCCCC2)c1OC` as the compound, how does the Potency read?
A: inconclusive: 10 µM [activator, partial curve, poor fit]

Q: Which Potency does the source give for `C[C@@H](NC(=O)OC(C)(C)C)c1nnc(S(=O)(=O)Cc2ccccc2)o1` here?
A: inconclusive: 20 µM [inhibitor, partial curve, poor fit]

Q: For `COc1ccc2[nH]cc(CCN3C(=O)c4ccc(C(=O)O)cc4C3=O)c2c1`, which Potency is on record?
A: inconclusive: 2.51 µM [activator, full curve, poor fit]

Q: For `Cc1oc2ccc(O)c(CN3CCOCC3)c2c1C(=O)c1ccc(Cl)cc1`, which Potency is on record?
A: inconclusive: 14.6 µM [inhibitor, partial curve]

Q: For `CC1CCN(c2nc3ccc(C(=O)NCc4ccccc4Cl)cc3s2)CC1`, which Potency is on record?
A: inconclusive: 6.31 µM [activator, full curve, poor fit]

Q: Which Potency does the source give for `CC(C)(C)C(=O)/C=C(N)/C=C/c1ccccc1` here?
A: inconclusive: 6.51 µM [activator, single point]

Q: For `COc1ccc(CCNCC(O)COc2cccc(C(C)=O)c2)cc1OC` (configuration not stated), which Potency is on record?
A: inconclusive: 35.5 µM [inhibitor, single point]

Q: For `C=CCNC(=S)N(Cc1ccccc1)Cc1ccccc1`, which Potency is on record?
A: inconclusive: 1.26 µM [inhibitor, full curve, poor fit]

Q: For `O=C(O)C1C2C=CC(C2)C1C(=O)NCc1ccc(Cl)cc1Cl` (configuration not stated), which Potency is on record?
A: inactive

Q: With `CS(=O)(=O)n1nc(-c2cccnc2)nc1NCc1ccccc1` as the compound, how does the Potency read?
A: inactive

Q: For `C[n+]1cc(C(=O)N2CCCCC2)ccc1/C=C/c1c[nH]c2ccccc12`, which Potency is on record?
A: inactive

Q: For `CCCN1C(=O)/C(=C/c2ccc(C)s2)NC1=S`, which Potency is on record?
A: inactive

Q: Which Potency does the source give for `NC(=O)C1CCCN(C(=S)Nc2cccc3ccccc23)C1` (configuration not stated) here?
A: inconclusive: 3.16 µM [inhibitor, single point]

Q: Which Potency does the source give for `O=C1C2C3C=CC(C3)C2C(=O)N1c1nc2ccccc2s1` (configuration not stated) here?
A: inactive

Q: With `O=C(Nc1nc2ccccc2[nH]1)c1cccc(S(=O)(=O)N2CCOCC2)c1` as the compound, how does the Potency read?
A: inactive

Q: For `COc1ccc(CNCCC(c2ccc3c(c2)OCO3)c2ccccc2OC)cc1` (configuration not stated), which Potency is on record?
A: inconclusive: 35.5 µM [inhibitor, single point]

Q: With `COc1cc(OC)cc(C(=O)N[C@H](C(=O)OCC(=O)c2ccc(F)cc2)C(C)C)c1` as the compound, how does the Potency read?
A: inconclusive: 12.6 µM [inhibitor, single point]

Q: For `CCN(CC)S(=O)(=O)c1cccc(NC(=O)COC(=O)/C=C/c2ccco2)c1`, which Potency is on record?
A: inactive

Q: Which Potency does the source give for `Cc1ccccc1NC(=S)NNC(=O)c1ccoc1C` here?
A: inconclusive: 32.6 µM [activator, single point]

Q: Which Potency does the source give for `Cc1onc(-c2c(F)cccc2Cl)c1C(=O)N1C=CC(C(F)(F)Cl)=NCC1` here?
A: inactive

Q: For `Nc1ccccc1OCCOc1ccccc1N`, which Potency is on record?
A: inactive

Q: For `COc1ccc(Cn2cc(C(=O)c3ccc(C)c(C)c3)c(=O)c3ccccc32)cc1`, which Potency is on record?
A: inactive

Q: With `CN1CCC(N(C)C(=O)/C(C#N)=C\c2ccc(OC(F)F)cc2)CC1` as the compound, how does the Potency read?
A: inconclusive: 25.1 µM [inhibitor, single point]

Q: Which Potency does the source give for `O=C(COc1ccccc1)N/N=C/c1ccc2c(c1)OCO2` here?
A: inconclusive: 35.5 µM [inhibitor, single point]

Q: With `CCn1c2ccccc2c2cc(NS(=O)(=O)c3ccccc3C)ccc21` as the compound, how does the Potency read?
A: inconclusive: 25.1 µM [inhibitor, single point]

Q: Which Potency does the source give for `CCC(C)NC(=O)C1CCN(CCCc2ccccc2)CC1` (configuration not stated) here?
A: inconclusive: 35.5 µM [inhibitor, single point]

Q: For `Cc1ccc2nc(NC(=O)c3ccc(N4C(=O)CCC4=O)cc3)sc2c1`, which Potency is on record?
A: inactive

Q: Which Potency does the source give for `COC(=O)C1CN(C(=O)C(C)Oc2ccc(F)cc2)c2ccccc2O1` (configuration not stated) here?
A: inactive

Q: Which Potency does the source give for `COc1cc(/C=N/NC(=O)c2ccc(NC(=O)C3CC3)cc2)ccc1OC(C)=O` here?
A: inactive

Q: For `FC(F)(F)c1ccccc1Nc1nccs1`, which Potency is on record?
A: inactive

Q: With `COc1cc(/C=N/NC(=O)CCc2c(C)n[nH]c2C)ccc1O` as the compound, how does the Potency read?
A: inactive

Q: With `COc1cc2ncc(C(=O)c3ccc(C)cc3)c(N3CCCCC3)c2cc1OC` as the compound, how does the Potency read?
A: inconclusive: 35.5 µM [inhibitor, single point]

Q: For `CCOc1nc(C#N)nc(N2CCCCC2)n1`, which Potency is on record?
A: inconclusive: 35.5 µM [inhibitor, partial curve, poor fit]

Q: Which Potency does the source give for `Cc1ccc(S(=O)(=O)/N=C2\C=C(Nc3ccc(O)cc3)C(=O)c3ccccc32)cc1` here?
A: inconclusive: 3.16 µM [inhibitor, full curve, poor fit]

Q: For `Cc1ccnc(N2CCC(C(=O)Nc3ccc(Oc4ccccc4)cc3)CC2)n1`, which Potency is on record?
A: inactive

Q: For `Cc1cc2ccccc2n2c(SCC(=O)N3CCOCC3)nnc12`, which Potency is on record?
A: inactive

Q: With `COc1ccccc1NC(=O)CCCC(=O)OCC(F)(F)C(F)F` as the compound, how does the Potency read?
A: inconclusive: 29.1 µM [activator, single point]

Q: Which Potency does the source give for `N#Cc1ccc(OCc2nnc(SCC(=O)N3CCCc4ccccc43)n2-c2ccccc2)cc1` here?
A: active: 18.3 µM

Q: For `CC1CCN(CCNC(=O)c2ccc(NC(=O)C3CCCO3)cc2)CC1` (configuration not stated), which Potency is on record?
A: inactive

Q: With `O=C(NCc1ccccc1)Nc1cccn(Cc2ccc(F)cc2)c1=O` as the compound, how does the Potency read?
A: inconclusive: 0.316 µM [activator, partial curve, poor fit]
